In publication PMC12183919:
These are yes or no findings as the source states them, for the method shown. In cells and extracts the contact can be indirect. Some results given as binding are weak or reduced against the parent protein; the word gives no strength. Tags and fused reporters may be left off the sequences shown.

Amino acid sequences for entries named in this document (tags omitted).
UniProt O14810: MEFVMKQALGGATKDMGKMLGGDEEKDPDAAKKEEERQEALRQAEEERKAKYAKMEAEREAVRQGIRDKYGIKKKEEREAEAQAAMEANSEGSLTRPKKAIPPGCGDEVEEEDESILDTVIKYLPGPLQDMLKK
UniProt P63027: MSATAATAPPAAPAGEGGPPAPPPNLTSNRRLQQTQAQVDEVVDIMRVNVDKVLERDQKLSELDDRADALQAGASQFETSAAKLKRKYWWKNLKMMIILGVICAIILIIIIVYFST
UniProt P21579: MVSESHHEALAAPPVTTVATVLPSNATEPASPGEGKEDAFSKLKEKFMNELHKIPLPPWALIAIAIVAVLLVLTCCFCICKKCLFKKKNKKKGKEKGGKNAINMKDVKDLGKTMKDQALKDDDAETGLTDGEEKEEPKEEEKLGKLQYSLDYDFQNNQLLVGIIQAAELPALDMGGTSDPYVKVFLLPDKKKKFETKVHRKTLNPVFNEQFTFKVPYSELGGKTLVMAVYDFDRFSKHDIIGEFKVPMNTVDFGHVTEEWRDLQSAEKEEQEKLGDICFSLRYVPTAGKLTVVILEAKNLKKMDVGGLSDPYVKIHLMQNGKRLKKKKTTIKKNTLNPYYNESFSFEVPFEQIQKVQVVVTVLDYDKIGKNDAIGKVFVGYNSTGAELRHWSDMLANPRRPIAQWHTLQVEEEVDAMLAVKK

Each substance was assayed against T1, synaptotagmin 13 (SYT13), endogenous in human brain (human (endogenous in brain tissue)) (UniProt Q7L8C5) (assay: co-IP; human temporal lobe homogenates (DLB, MSA, controls); IP with anti-SYT13 antibody (MBS9606007), immunoblot).
T1 sequence: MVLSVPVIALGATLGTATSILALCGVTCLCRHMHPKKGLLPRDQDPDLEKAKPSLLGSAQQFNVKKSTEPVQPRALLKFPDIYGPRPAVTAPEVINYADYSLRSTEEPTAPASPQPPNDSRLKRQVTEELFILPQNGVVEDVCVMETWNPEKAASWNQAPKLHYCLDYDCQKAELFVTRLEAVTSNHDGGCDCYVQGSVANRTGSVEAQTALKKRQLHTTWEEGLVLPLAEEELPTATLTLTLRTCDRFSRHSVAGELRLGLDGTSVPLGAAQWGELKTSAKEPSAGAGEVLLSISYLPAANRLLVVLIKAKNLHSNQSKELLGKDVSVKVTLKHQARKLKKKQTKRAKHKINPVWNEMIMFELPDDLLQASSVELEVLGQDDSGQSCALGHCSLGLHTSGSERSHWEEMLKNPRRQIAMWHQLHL

binding, binds:
Complexin 1 (CPLX1), endogenous in human brain (from UniProt O14810 1-134)
vesicle-associated membrane protein 2 (VAMP2), endogenous in human brain (from UniProt P63027 1-116)
synaptotagmin 1 (SYT1), endogenous in human brain (from UniProt P21579 1-422)
